Assay results taken from the supplement of paper PMC7877785.
± gives the uncertainty stated by the source. The uncertainty is large for many entries.

Assay: self-splicing fitness, log relative to wild type (ln ratio); higher = more splicing; Tetrahymena group I intron in knt gene, E. coli kanamycin selection, DiMSum; sequences stand for … in CUCUCU…GGAGGGAAAAGUUAUCAGGCAUGCACCUGGUAGCUAGUCUUUAAACCAAUAGAUUGCAUCGGUUUAAAAGGCAAGACCGUCAAAUUGCGGGAAAGGGGUCAACAGCCGUUCAGUACCAAGUCUCAGGGGAAACUUUGAGAUGGCCUUGCAAAGGGUAUGGUAAUAAGCUGACGGACAUGGUCCUAACCACGCAGCCAAGUCCUAAGUCAACAGAUCUUCUGUUGAUAUGGAUGCAGUUCACAGACUAAAUGUCGGUCGGGGAAGAUGUAUUCUUCUCAUAAGAUAUAGUCGGACCUCUCCUUAAUGGGAGCUAGCGGAUGAAGUGAUGCAACACUGGAGCCGCUGGGAACUAAUUUGUAUGCGAAAGUAUAUUGAUUAGUUUUGGAGUACUCGUGGUCG
In short: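 Library with all eight P1ex-region intron nucleotides randomised, intron inside the knt kanamycin-resistance gene on pET-22b(+), in E. coli BL21(DE3). Cells grew overnight at 37°C or 30°C on LB agar with or without 25 μg/mL kanamycin (plus 100 μg/mL carbenicillin, 50 μM IPTG, 0.2% rhamnose), in six replicate transformations. Pooled colonies were amplicon-sequenced on Illumina HiSeq 2500. DiMSum fitness is the error-weighted combination of wild-type-normalised replicate fold changes, kanamycin versus none.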

Sequence | self-splicing fitness (ln) (30 °C) | self-splicing fitness (ln) (37 °C)
GUUAAGCAAUAUUACGUCGC | -1.61 ± 0.21 | -1.83 ± 0.28
UCUCAGCAAUAUUACGCUCC |  | -1.88 ± 0.72
CCGAAGCAAUAUUACGACCA | -2.66 ± 1.1 | -0.32 ± 0.56
GGGGAGCAAUAUUACGCGAA | -2.75 ± 0.4 | 0.457 ± 0.31
CACUAGCAAUAUUACGAUCG | 0.531 ± 0.067 | 0.717 ± 0.071
GUCAAGCAAUAUUACGGAGG | -3.66 ± 0.52 | 
CCGAAGCAAUAUUACGCUAC | -2.35 ± 0.79 | -3.23 ± 0.74
AACAAGCAAUAUUACGCUAC | -4.09 ± 0.51 | 
UCUUAGCAAUAUUACGCCUC | -1.32 ± 1.4 | 
GAAGAGCAAUAUUACGCGAU | -3.39 ± 0.63 | 
UCGGAGCAAUAUUACGAUUG | -3.84 ± 0.59 | -2.55 ± 0.54
GUUGAGCAAUAUUACGGCGG | -3.4 ± 1.1 | 
GGAGAGCAAUAUUACGCCGA | -1.52 ± 0.61 | 
UAGUAGCAAUAUUACGAUGU | -4.3 ± 0.72 | 
UGGUAGCAAUAUUACGUUUC |  | -2.62 ± 0.63
CCGGAGCAAUAUUACGGUGC | -3.54 ± 0.52 | 
GUCUAGCAAUAUUACGACUA |  | -0.595 ± 1.4
GGACAGCAAUAUUACGCUUC |  | -1.7 ± 0.6
CCUUAGCAAUAUUACGCUCG | -3.42 ± 1 | 
UUUUAGCAAUAUUACGAAGG | -2.07 ± 0.58 | 

Sequence | self-splicing fitness (ln) (30 °C) | self-splicing fitness (ln) (37 °C)
GGGAAGCAAUAUUACGAAGA | -2.81 ± 0.68 | -0.943 ± 0.23
UCCUAGCAAUAUUACGCAGC | -3.74 ± 0.62 | 
CGUAAGCAAUAUUACGAGCC | -4.38 ± 0.59 | 
GGUAAGCAAUAUUACGAGGA | -3.59 ± 0.54 | 
ACGUAGCAAUAUUACGGCAC | -3.12 ± 0.54 | 
GCACAGCAAUAUUACGCAGC | -3.8 ± 0.52 | 
UGCAAGCAAUAUUACGCCAA | -1.67 ± 0.34 | -0.657 ± 0.19
UGAUAGCAAUAUUACGUUAG | -1.92 ± 0.1 | -1.57 ± 0.15
UAGGAGCAAUAUUACGCUAU | -2.36 ± 1.2 | 
UUUAAGCAAUAUUACGAGUC | -3.31 ± 0.6 | 
CUCCAGCAAUAUUACGCCAC |  | -2.54 ± 0.54
GCUGAGCAAUAUUACGCUGA | -2.99 ± 0.2 | -1.15 ± 0.17
CUUAAGCAAUAUUACGGUUA | -4.03 ± 1 | 
CAGUAGCAAUAUUACGGACC |  | -2.37 ± 0.63
GAGUAGCAAUAUUACGCGAA | -1.9 ± 0.57 | 
UCCAAGCAAUAUUACGUAGC | -3.38 ± 0.14 | -1.38 ± 0.11
GUGAAGCAAUAUUACGAGGU | -1.83 ± 0.29 | -1.36 ± 0.26
CGUGAGCAAUAUUACGUACC | -1.26 ± 0.53 | -3.72 ± 0.73
GAGAAGCAAUAUUACGCCCG | -2.15 ± 0.19 | 0.00226 ± 0.24
CCGUAGCAAUAUUACGACUC | -2.62 ± 0.62 | -2.09 ± 0.56

Sequence | self-splicing fitness (ln) (30 °C) | self-splicing fitness (ln) (37 °C)
GGGGAGCAAUAUUACGAGCC | -4.47 ± 1 | 
UAAGAGCAAUAUUACGUUGG |  | -3.35 ± 0.6
CGUUAGCAAUAUUACGAAGC |  | -2.89 ± 1.1
CCGUAGCAAUAUUACGAAGC | 0.0563 ± 0.84 | -1.17 ± 0.64
UAGAAGCAAUAUUACGCUUU | -4.85 ± 1 | 
UGAGAGCAAUAUUACGCGAC | -0.167 ± 1.2 | -2.2 ± 1.1
UGGCAGCAAUAUUACGACAC | -2.84 ± 0.67 | 
CCUCAGCAAUAUUACGCCCU | -2.29 ± 0.24 | -2.73 ± 0.48
CAGAAGCAAUAUUACGACCU | -2.86 ± 0.4 | 0.0264 ± 0.23
GGCCAGCAAUAUUACGAUGG | -4.28 ± 0.33 | -2.67 ± 0.33
GAGGAGCAAUAUUACGGGUA | -4.44 ± 1 | -2.26 ± 0.36
UCUUAGCAAUAUUACGAUGC |  | -2.19 ± 0.56
UGACAGCAAUAUUACGAUCG | 0.0362 ± 0.077 | 0.761 ± 0.1
UAUGAGCAAUAUUACGUAAG | -5.43 ± 1 | 
ACACAGCAAUAUUACGUUCC | -2.17 ± 0.088 | -1.29 ± 0.1
ACCGAGCAAUAUUACGCCCC | -2.86 ± 0.64 | -1.43 ± 0.61
AAUUAGCAAUAUUACGGAAG | -3.79 ± 0.73 | 
UAUUAGCAAUAUUACGCGCC |  | -0.483 ± 0.61
GAACAGCAAUAUUACGUUCC |  | -3.21 ± 0.6
GGAAAGCAAUAUUACGGUCC |  | -1.98 ± 1.1

Part of the list above, with tabs.
Sequence	self-splicing fitness (ln) (30 °C)	self-splicing fitness (ln) (37 °C)
UCGGAGCAAUAUUACGAUUG	-3.84 ± 0.59	-2.55 ± 0.54
UGCAAGCAAUAUUACGCCAA	-1.67 ± 0.34	-0.657 ± 0.19
UCUUAGCAAUAUUACGAUGC		-2.19 ± 0.56
